Source: PubChem BioAssay AID652259 (Drosophila RNAi Screening Center, 2013)

Aim: 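Identify new Wingless signalling regulators in fly cells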 (primary screen)
Cell system: Drosophila clone 8 imaginal disc epithelial cells
Knock-down reagent: long dsRNA against Drosophila genes
Treatment: pathway stimulated by co-transfected Wingless expression plasmid
Read-out: 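Firefly luciferase from a tcf-site Wingless reporter, measured alongside co-transfected Renilla luciferase that tracks transfection; pathway stimulated by a Wingless plasmid; the firefly-to-Renilla ratio is not deposited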
Scale: firefly reporter light: higher = more Wg reporter light, before normalisation; Renilla control light: higher = more transfected or surviving cells
Hit rule: 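Strong candidates differ from their plate mean by at least two out of four per-plate statistical tests; weak candidates meet just one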
Calls: active = candidate regulator (raises or lowers reporter); inactive = not a candidate
The deposit covers about 22,000 reagents; below is an unselected part of those with a known target gene and a result. Over the whole deposit, 233 (1.1%) are marked active. 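Light values are raw, unnormalised plate reads; the ratio scores behind the reporter calls were not deposited.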 A plus sign joins genes that one reagent is predicted to hit. The record does not give: the amount of reagent, the time to read-out, the dose of the treatment.

gene	amplicon	firefly reporter light, replicate 1	firefly reporter light, replicate 2	Renilla control light, replicate 1	Renilla control light, replicate 2	call
CG6709 + Hez	DRSC10165	7169		4784		inactive
CG6709 + Hez	DRSC10698	8884		5126		inactive
Hsc70-5	DRSC07442	17127		4064		inactive
lsn	DRSC16081	30621		6144		inactive
Daao1	DRSC06131	1396	6692	523	3313	inactive
CG9389	DRSC11857	3837		1629		inactive
CG5065	DRSC06912	6064		1990		inactive
CG13041	DRSC09922	6256		3032		inactive
Srrm1	DRSC09835	7139		2832		inactive
CG12237	DRSC19449	4678	8790	1712	3356	inactive
CG12237	DRSC22256	3.81e5	4.08e5	1.37e5	1.57e5	inactive
CG11267	DRSC09833	9233		4448		inactive
COX6CL	DRSC00895	23079		10100		inactive
Lerp	DRSC14750	5525		2200		inactive
Lerp	DRSC14751	10416		2912		inactive
Lerp	DRSC16030	6108		3328		inactive
Lerp	DRSC16031	6835		2800		inactive
CG18048	DRSC12573	15030		3777		inactive
sgll	DRSC15442	13767		4020		inactive
RpLP0-like	DRSC06424	11290		3648		inactive
CG34112	DRSC12235	15564		4119		inactive
CG14245	DRSC14740	7033		3088		inactive
Acp32CD	DRSC01858	3623	9474	730	3346	inactive
CtsK1	DRSC08742	4214		1938		inactive
GstE8	DRSC06678	21282		5826		inactive
geminin	DRSC04984	2518	3824	429	1168	inactive
cort	DRSC02148	3060		428		inactive
RpS18	DRSC07540	3241		1746		inactive
Mnn1	DRSC03368	3405	9057	968	3146	inactive
Ace	DRSC12959	3851		1434		inactive
Ace	DRSC14100	5669		2300		inactive
P58IPK	DRSC16404	11554		2912		inactive
ppk11	DRSC02737	2902	5273	717	2020	inactive
PsGEF	DRSC18596	27223		22787		inactive
PsGEF	DRSC18600	14731		14715		inactive
PsGEF	DRSC18601	14131		6416		inactive
CG34228	DRSC05300	18755		15680		inactive
CG16719	DRSC10222	4316		1211		inactive
CG11550	DRSC14326	13776		12007		inactive
klhl10	DRSC05274	17714		14827		inactive
klhl10	DRSC19171	5482		1660		inactive
klhl10	DRSC20750	15777		9744		inactive
klhl10	DRSC20925	21544		13929		inactive
Reps	DRSC02940	2194	4867	807	2729	inactive
His3.3A	DRSC03343	2341	5016	162	352	inactive
CG15602	DRSC19671	21442		8322		inactive
CG34268	DRSC07874	4167		1773		inactive
Ack-like	DRSC07500	13430		3028		inactive
Ack-like	DRSC21845	5.54e5	5.51e5	2.10e5	2.67e5	inactive
Svip	DRSC08982	1860		588		inactive
sqa	DRSC06693	6544		2403		inactive
sqa	DRSC21635	5.53e5	6.93e5	2.74e5	2.28e5	inactive
eIF2Bbeta	DRSC18465	16731		12693		inactive
CG13926	DRSC08395	4403		1732		inactive
mRpL55	DRSC14764	15733		2912		inactive
ex	DRSC00817	8672		3481		inactive
CG7794	DRSC16313	13869		3397		inactive
CG43084	DRSC09998	6170		2892		inactive
Grl40a	DRSC03677	14352		8966		inactive
CG12158	DRSC22933	7.30e5	7.50e5	3.80e5	97638	inactive
Ent3	DRSC09822	7531		3488		inactive
CG32982	DRSC01059	13994		6720		inactive
CG32982	DRSC02677	4614	6801	1424	4272	inactive
CG32982	DRSC03268	3276	8819	1082	4448	inactive
CG32982	DRSC03269	3053	5398	1185	2320	inactive
CG32982	DRSC21912	4.23e5	4.73e5	1.65e5	1.79e5	inactive
LSm7	DRSC02251	3040	9474	743	3241	inactive
Klp10A	DRSC19601	2187	5613	849	1752	inactive
Noc3	DRSC12535	3755		1371		inactive
CG34290	DRSC13660	4194		2312		inactive
CG43373	DRSC09869	6891		3804		inactive
CG43373	DRSC09885	8516		3767		inactive
Hn	DRSC11184	5211		1664		inactive
Dscam4	DRSC08911	2723		470		inactive
Dscam4	DRSC08913	3805		1715		inactive
Dscam4	DRSC10031	1857	7520	1082	2898	inactive
Dscam4	DRSC10329	1254	4736	891	2124	inactive
Dscam4	DRSC10765	1734	9880	1456	4448	inactive
Pdi	DRSC11250	4151		2908		inactive
CG32109	DRSC09816	7490		3392		inactive
Arp3	DRSC09669	6258		2299		inactive
CG14402	DRSC02386	2184	6810	774	2183	inactive
CG15576	DRSC18064	19500		8918		inactive
CG12490	DRSC04123	3163	4918	742	2043	inactive
CG33298	DRSC02210	1443	7114	658	2374	inactive
CG33298	DRSC02672	8314		2336		inactive
CG5541	DRSC19946	3089	9002	1226	4337	inactive
CG3594	DRSC04393	14160		5197		inactive
CG3594	DRSC21959	4.19e5	5.04e5	1.55e5	1.70e5	inactive
Tnpo	DRSC11309	5584		1367		inactive
CG17760	DRSC06694	11760		4221		inactive
cry	DRSC16928	12844		3187		inactive
CG14022	DRSC02352	2839	6949	1409	2248	inactive

Part of the list above, reformatted:
gene | amplicon | firefly reporter light, replicate 1 | firefly reporter light, replicate 2 | Renilla control light, replicate 1 | Renilla control light, replicate 2 | call
Ace | DRSC14100 | 5669 | – | 2300 | – | inactive
P58IPK | DRSC16404 | 11554 | – | 2912 | – | inactive
ppk11 | DRSC02737 | 2902 | 5273 | 717 | 2020 | inactive
PsGEF | DRSC18596 | 27223 | – | 22787 | – | inactive
PsGEF | DRSC18600 | 14731 | – | 14715 | – | inactive
PsGEF | DRSC18601 | 14131 | – | 6416 | – | inactive
CG34228 | DRSC05300 | 18755 | – | 15680 | – | inactive
CG16719 | DRSC10222 | 4316 | – | 1211 | – | inactive
CG11550 | DRSC14326 | 13776 | – | 12007 | – | inactive
klhl10 | DRSC05274 | 17714 | – | 14827 | – | inactive
klhl10 | DRSC19171 | 5482 | – | 1660 | – | inactive
klhl10 | DRSC20750 | 15777 | – | 9744 | – | inactive
klhl10 | DRSC20925 | 21544 | – | 13929 | – | inactive
Reps | DRSC02940 | 2194 | 4867 | 807 | 2729 | inactive
